Results are given in words; binding and its absence hold for the method and conditions named. In cells and extracts the contact can be indirect. Some binding calls cover weakened binding; strength is not graded here.
Target: superfolder green fluorescent protein (sfGFP)-tagged VPS13D (transcript variant 2, NM_018156) (human) (UniProt Q5THJ4)
Assay: co-IP; GFP-Trap agarose beads (ChromoTek) on lysates of HEK293 cells, by the manufacturer's protocol; GFP-tagged protein held, partner detected by western blot (anti-TSG101 or anti-Halo); 5% input

Amino acid sequences for entries named in this document (tags omitted). A change or cut given only in a name is not applied to a line headed by its entry. Chains listed by the source or under a name are the forms on record and can include a tag or linker.
superfolder green fluorescent protein (sfGFP)-tagged VPS13D (transcript variant 2, NM_018156) (Q5THJ4, form named): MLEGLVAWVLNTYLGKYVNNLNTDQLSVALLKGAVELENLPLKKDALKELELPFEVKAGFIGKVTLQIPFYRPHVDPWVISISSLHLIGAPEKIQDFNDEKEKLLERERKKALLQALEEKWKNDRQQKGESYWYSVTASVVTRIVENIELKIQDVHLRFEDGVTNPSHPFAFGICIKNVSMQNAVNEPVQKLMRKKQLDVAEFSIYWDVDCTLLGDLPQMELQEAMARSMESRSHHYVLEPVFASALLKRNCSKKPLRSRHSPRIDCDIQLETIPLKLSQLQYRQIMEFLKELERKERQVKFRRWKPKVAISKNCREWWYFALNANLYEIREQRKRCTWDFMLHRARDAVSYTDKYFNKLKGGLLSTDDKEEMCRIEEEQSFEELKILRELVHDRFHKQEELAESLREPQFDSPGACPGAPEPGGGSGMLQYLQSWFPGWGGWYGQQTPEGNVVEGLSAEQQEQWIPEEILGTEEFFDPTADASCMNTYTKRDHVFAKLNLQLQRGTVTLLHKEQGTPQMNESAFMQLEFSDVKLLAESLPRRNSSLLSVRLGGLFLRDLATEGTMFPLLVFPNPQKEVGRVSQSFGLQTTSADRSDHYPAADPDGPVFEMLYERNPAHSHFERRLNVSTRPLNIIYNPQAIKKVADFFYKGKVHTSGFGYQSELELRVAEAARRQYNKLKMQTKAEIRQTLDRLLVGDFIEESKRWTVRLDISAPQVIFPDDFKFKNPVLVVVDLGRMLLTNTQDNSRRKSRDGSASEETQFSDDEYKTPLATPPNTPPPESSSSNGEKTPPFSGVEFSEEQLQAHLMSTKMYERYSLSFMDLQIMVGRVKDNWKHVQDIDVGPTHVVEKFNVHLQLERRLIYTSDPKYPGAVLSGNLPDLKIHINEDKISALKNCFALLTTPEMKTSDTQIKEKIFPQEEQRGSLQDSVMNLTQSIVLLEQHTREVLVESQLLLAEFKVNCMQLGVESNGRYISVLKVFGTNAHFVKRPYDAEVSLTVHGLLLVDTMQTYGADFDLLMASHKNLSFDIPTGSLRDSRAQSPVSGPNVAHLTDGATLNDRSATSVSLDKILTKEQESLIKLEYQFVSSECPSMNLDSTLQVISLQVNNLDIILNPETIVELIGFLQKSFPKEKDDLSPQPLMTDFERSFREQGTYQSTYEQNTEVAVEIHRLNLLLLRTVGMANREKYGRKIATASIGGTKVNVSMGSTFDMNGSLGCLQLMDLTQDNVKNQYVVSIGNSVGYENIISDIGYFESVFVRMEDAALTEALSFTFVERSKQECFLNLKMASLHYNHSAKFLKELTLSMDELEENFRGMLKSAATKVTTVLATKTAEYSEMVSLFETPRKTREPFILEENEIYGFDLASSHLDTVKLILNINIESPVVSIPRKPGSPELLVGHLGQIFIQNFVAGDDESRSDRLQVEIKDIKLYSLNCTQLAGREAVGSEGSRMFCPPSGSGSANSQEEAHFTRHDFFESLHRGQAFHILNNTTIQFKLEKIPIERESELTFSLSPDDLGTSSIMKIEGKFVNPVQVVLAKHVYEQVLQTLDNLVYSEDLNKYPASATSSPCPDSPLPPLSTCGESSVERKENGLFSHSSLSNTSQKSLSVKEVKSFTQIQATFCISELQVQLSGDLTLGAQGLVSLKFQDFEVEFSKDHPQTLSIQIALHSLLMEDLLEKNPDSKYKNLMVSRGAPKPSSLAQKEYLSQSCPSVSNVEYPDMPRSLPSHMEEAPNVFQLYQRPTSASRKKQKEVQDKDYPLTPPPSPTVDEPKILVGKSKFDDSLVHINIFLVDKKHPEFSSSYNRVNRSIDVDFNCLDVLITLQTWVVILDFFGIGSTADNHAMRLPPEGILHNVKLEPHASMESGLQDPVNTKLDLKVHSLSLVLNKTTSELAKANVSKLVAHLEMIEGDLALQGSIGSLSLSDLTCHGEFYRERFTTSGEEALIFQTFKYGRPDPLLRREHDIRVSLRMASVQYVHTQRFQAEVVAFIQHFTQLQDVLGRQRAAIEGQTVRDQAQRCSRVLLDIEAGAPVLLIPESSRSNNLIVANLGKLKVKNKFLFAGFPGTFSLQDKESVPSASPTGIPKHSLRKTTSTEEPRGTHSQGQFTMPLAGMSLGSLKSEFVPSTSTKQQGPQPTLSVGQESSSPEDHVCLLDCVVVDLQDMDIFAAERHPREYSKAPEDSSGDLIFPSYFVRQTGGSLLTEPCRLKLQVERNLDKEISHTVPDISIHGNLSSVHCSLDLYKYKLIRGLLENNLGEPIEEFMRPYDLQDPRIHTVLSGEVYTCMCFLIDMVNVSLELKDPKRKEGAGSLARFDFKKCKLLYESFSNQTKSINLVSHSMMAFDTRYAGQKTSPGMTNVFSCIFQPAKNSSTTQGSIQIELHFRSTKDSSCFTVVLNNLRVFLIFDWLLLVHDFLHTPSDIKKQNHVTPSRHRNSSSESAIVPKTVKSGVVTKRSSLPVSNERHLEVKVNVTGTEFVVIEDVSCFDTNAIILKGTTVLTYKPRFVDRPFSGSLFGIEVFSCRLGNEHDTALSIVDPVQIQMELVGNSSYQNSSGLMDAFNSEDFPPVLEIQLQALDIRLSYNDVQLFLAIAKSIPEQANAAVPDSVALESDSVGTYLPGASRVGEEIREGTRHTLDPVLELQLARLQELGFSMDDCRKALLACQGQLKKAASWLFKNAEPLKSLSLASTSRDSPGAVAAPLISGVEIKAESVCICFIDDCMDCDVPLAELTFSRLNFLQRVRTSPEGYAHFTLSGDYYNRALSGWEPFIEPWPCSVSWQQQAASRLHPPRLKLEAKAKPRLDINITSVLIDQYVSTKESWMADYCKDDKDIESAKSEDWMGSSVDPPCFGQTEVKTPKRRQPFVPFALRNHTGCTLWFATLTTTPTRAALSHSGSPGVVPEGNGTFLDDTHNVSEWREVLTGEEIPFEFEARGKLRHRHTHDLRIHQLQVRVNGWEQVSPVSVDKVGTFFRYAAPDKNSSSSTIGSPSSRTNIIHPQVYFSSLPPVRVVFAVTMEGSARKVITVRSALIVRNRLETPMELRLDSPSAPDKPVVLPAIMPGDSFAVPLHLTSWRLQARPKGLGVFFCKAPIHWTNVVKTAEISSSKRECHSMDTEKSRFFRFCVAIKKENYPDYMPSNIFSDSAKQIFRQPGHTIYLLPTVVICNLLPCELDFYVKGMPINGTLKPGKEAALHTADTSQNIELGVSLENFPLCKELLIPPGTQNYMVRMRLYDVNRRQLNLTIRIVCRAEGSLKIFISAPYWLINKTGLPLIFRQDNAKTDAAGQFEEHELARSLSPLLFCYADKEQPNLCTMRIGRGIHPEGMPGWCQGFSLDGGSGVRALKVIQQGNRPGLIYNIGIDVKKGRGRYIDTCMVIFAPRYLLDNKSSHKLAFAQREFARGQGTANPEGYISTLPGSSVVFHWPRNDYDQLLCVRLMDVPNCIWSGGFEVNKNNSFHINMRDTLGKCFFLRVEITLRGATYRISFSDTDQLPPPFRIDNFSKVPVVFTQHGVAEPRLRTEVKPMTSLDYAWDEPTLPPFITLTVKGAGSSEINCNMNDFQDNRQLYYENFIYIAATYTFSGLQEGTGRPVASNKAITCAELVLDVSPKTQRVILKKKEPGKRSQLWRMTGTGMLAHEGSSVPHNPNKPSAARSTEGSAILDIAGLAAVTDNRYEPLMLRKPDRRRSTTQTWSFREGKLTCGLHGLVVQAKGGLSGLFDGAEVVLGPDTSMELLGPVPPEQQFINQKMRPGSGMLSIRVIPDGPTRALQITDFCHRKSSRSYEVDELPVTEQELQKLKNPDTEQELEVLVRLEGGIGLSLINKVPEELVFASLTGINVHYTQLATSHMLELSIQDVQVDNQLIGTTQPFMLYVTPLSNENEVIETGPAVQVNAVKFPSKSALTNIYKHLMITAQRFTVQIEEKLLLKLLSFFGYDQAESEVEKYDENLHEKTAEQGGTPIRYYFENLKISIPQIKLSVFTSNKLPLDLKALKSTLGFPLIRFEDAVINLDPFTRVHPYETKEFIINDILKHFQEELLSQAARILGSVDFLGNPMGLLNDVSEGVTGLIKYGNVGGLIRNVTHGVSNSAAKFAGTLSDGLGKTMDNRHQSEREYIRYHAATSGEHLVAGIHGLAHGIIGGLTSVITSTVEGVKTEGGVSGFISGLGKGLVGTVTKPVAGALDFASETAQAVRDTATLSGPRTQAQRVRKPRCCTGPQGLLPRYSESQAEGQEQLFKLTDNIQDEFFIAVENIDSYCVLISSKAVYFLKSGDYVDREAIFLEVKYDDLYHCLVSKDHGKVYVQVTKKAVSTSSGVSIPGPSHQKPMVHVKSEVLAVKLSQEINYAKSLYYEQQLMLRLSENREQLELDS
UniProt Q99816: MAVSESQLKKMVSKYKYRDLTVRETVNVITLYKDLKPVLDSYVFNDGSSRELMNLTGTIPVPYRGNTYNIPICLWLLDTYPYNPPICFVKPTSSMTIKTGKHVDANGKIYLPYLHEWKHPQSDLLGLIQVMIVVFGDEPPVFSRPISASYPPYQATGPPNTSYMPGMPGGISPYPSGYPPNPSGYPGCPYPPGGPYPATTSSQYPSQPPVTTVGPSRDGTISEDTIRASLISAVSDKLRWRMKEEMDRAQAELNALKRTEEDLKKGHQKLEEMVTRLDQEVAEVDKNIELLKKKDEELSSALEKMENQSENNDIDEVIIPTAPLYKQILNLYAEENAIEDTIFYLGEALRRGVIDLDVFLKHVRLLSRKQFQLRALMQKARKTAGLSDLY

- binding: binds
Substance: TSG101 found with VPS13D in the GFP-Trap of Supplementary Fig. 4b (endogenous or Halo-tagged not stated) (from UniProt Q99816 1-390)

Reference: paper PMC7902631, “An ESCRT-dependent step in fatty acid transfer from lipid droplets to mitochondria through VPS13D−TSG101 interactions” (Nature Communications, 2021)
